This is one part of the list. The main result of the screen is listed elsewhere. These columns were measured beside it and carry no call. The list favours compounds with an active or inconclusive main result. Words in brackets tell the shape of the fitted curve; partial curves, single points and poor fits give uncertain potencies.

Usually AC50 stands for the concentration at which the activity in the assay is half-maximal.

This test is described as follows: Cell signaling CRE-BLA (Fsk stim). To be noted: CHO CRE-bla reporter (cAMP response element driving beta-lactamase), forskolin EC10, beta-lactamase ratio; measured here: 460 nm blue channel. A digest of the protocol: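 CRE-bla CHO cells stimulated with EC10 NKH 477 (water-soluble forskolin) and compound titrations, 3 h at 37C; beta-lactamase read with CCF4 after 2 h at room temperature. Activity from 460/530 nm emission ratio, AC50 values for positive or negative modulation.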
In the case of `Cc1ccc(-c2nc3cnccn3c2Nc2ccc3c(c2)OCO3)o1`, the AC50 was 10 µM [rising, partial curve].
Take `O=C(Nc1ccc2ccccc2c1)[C@@H]1C[C@H]1[C@@H](NP(=O)(c1ccccc1)c1ccccc1)c1ccccc1`: the AC50 was 2 µM [falling, full curve, poor fit].
To `Cc1nn(Cc2ccc(F)cc2)c(C)c1NC(=O)c1noc2c1CCCCC2` belongs 25.1 µM [falling, single point]; to `CCS(=O)(=O)N1CCC(C(=O)NCc2cccnc2)CC1`, 0.398 µM [rising, full curve].
To `CC1CCCN(C(=O)CSCC(=O)N=c2sc3ccccc3n2C)C1` (centres undefined) belongs 1.26 µM [falling, partial curve]; to `CCCOc1ccccc1C1CC(=O)Nc2cc3c(cc21)OCO3` (centres undefined), 10 µM [rising, partial curve].
To `COCCNc1nc(-c2c(C)noc2C)nc2ccccc12` belongs 12.6 µM [rising, partial curve]; to `O=c1c2ccccc2nc2c3ccccc3c3nncn3n12`, 10 µM [rising, partial curve]; to `CN(C)C(=O)c1ccc(-c2nc(Nc3ccc(F)cc3)c3ccccc3n2)cc1`, 3.16 µM [rising, full curve].
Consider `CN(C)P(=NC(=O)COc1ccc(Cl)cc1Cl)(N(C)C)N(C)C`, for which the concentration at half-maximal activity (AC50) is 3.98 µM [falling, single point].
In the case of `COC(=O)C(C#N)c1nc2ccccc2nc1N1CCCC1` (centres undefined) it was 12.6 µM [rising, partial curve]; in that of `Cc1ccc(-c2csc3nnc(SCC(=O)Nc4cccc(C)n4)n23)cc1`, 10 µM [rising, partial curve, poor fit].
To `O=c1c2ccccc2oc2ncccc12` belongs 1 µM [rising, single point].
To `CC(C)Cn1c(N)c(S(=O)(=O)c2cccs2)c2nc3ccccc3nc21` belongs 12.6 µM [rising, partial curve]; to `COc1ccc(OC)c(-n2cnnn2)c1`, 1.58 µM [rising, partial curve]; to `O=C(COC(=O)C1CCCN1C(=O)c1cccs1)Nc1ccc2c(c1)OCO2` (centres undefined), 5.01 µM [falling, partial curve].
In the case of `CCC1C(=O)N=C(SCC(=O)Nc2ccc(C(=O)OC)cc2)NC1=O` (centres undefined), the AC50 is 0.0501 µM [falling, full curve, poor fit].
In the case of `Cn1nnnc1Sc1nc(-c2cccnc2)nc2ccccc12` it was 3.98 µM [falling, partial curve]; in that of `CC(=O)NCc1ccc(-c2csc(N)n2)s1`, 3.98 µM [falling, partial curve].
